The test system of this assay is human neural stem cells (hNSCs). Put plainly: Neuronal differentiation of human neural stem cells (TUJ-1 staining). Type of assay: cell-based. The following applies: Neural stem cell, agent run independently, % of neuronal positive control, basal media subtracted, read-out: EC50 for neuronal differentiation, agent alone.

A word on the EC50: it is the concentration that produces a half-maximal response. In the case of `CN1CCN(C2=Nc3cc(Cl)ccc3Nc3ccccc32)CC1` [clozapine], the EC50 came out at 320 µM.

(Values after US20100216734A1, “MODULATION OF NEUROGENESIS BY NOOTROPIC AGENTS” (BrainCells, Inc., priority 2006, published 2010).)
